The text below walks through data of paper PMC12348835, “Design, Docking Analysis, and Structure–Activity Relationship of Ferrocene-Modified Tyrosine Kinase Inhibitors: Insights into BCR-ABL Interactions” (Molecules, 2025).

What all share (assay type): cell-based
The subject of assay [1] is K-562. Kind of assay: MTT cell viability assay, K-562. The note with it: Homo sapiens, K562, 72 h, ± standard deviation. The protocol: (§1) Cell viability was determined using the MTT colorimetric assay. […] Statistical significance was determined at p ≤ 0.05.
The subject of assay [2] is AR-230. In words: MTT cell viability assay, AR-230. The note with it: Homo sapiens, 72 h, ± standard deviation. The procedure: as §1
(Tetrazolium dyes change colour on reduction, which living cells bring about.)

Assay [3] relates to LAMA-84. Kind of assay: MTT cell viability assay, LAMA-84. The note with it: Homo sapiens, 72 h, ± standard deviation. The protocol:
as §1

Assay [4] relates to BV-173. Kind of assay: MTT cell viability assay, BV-173. The settings on record: Homo sapiens, 72 h, ± standard deviation. The protocol: as §1

For the molecule `Cc1ccc(NC(=O)c2ccc(CN3CCN(C)CC3)cc2)cc1Nc1nccc(-c2cccnc2)n1` [imatinib, reference compound], the half-inhibitory concentration (IC50) (as a rule, the concentration needed to halve the response being measured) in assay [1] is 45.5 ± 5 µM; in assay [2], 4.7 ± 1 µM; in assay [3], 0.5 ± 0.05 µM; in assay [4], 22.8 ± 4.8 µM.
